Construct, isoform or probe ends are uncertain for at least one entry. At least one verdict rests on a figure or table, not on a statement of the authors. Tags and fusion partners may be left off the protein sequences shown.
Target: T1, GST-GRP8 WT (Arabidopsis thaliana) (UniProt Q03251)
T1 sequence (looked up): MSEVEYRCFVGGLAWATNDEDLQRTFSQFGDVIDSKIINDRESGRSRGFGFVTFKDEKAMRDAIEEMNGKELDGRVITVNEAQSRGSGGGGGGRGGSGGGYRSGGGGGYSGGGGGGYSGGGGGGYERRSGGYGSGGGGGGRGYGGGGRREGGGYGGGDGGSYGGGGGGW
Test: EMSA
Conditions: 2 ug yeast tRNA competitor; residues 1-169

## GUUUUUGGUUUAGAUUUGGUUUUGUGU [GRP8-3UTR-WT-Cy5]
  binding result: binds
